PubChem BioAssay AID493014 (National Center for Advancing Translational Sciences (NCATS), 2011)
This is one part of the list. Shown are side measurements of this screen, not its main read-out; they come without a call. The list favours compounds with an active or inconclusive main result. Potencies come from curve fits of mixed quality, noted in brackets.

Assay: qHTS Assay to Find Inhibitors of Chronic Active B-Cell Receptor Signaling
Settings: ABC-DLBCL IkBa-CBG/CBR reporter, luminescence ratio (green luciferase fused to IkBa over red control in TMD8 lymphoma cells), 4 h
Summary of the method: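 TMD8 ABC-DLBCL cells carrying doxycycline-inducible green luciferase fused to IkappaBalpha plus unfused red luciferase were exposed to compounds (up to 46 uM) for 4 hrs at 37C. Activity came from the overlap-corrected green/red luminescence ratio.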

[1] = measured here: CBR red luminescence, cell number
[2] = measured here: IkBa-CBG green luminescence

Structure (SMILES) | AC50 [1] | AC50 [2]
CC(C)(C)c1ccc(C(=O)Nc2cccc(-n3cnnn3)c2)cc1 | 22.4 µM [falling, single point] | –
O=C(COc1ccccc1)Nc1cccc(-c2nc3cc4ccccc4cc3[nH]2)c1 | 28.2 µM [falling, partial curve, poor fit] | –
CCCNc1c(NS(=O)(=O)c2ccc(Cl)s2)c(=O)oc2ccccc12 | 20 µM [falling, partial curve] | –
COc1ccc(-n2c(=O)c3c(C)c(C)sc3n(Cc3cccc(F)c3)c2=O)c(OC)c1 | 8.91 µM [falling, partial curve, poor fit] | –
O=S(=O)(NCCc1csc2nc(-c3ccc(Cl)cc3)nn12)c1cccs1 | 35.5 µM [falling, single point] | 15.8 µM [rising, partial curve, poor fit]
COC(=O)c1ccc(CSc2nnc(SCc3ccc(C(=O)OC)o3)s2)o1 | 17.8 µM [falling, single point] | –
Cc1ccc(Oc2ccc(Cl)cc2N)cc1 | 6.31 µM [rising, partial curve] | –
CCCc1cc(C(=O)Nc2ccc(C(=O)c3ccc(C)cc3)cc2)n(C)n1 | 35.5 µM [falling, single point] | –
COc1ccccc1-c1cc(C(=O)Nc2cccnc2)no1 | – | 12.6 µM [falling, partial curve]
O=C(NC1CCS(=O)(=O)C1)c1cc(-c2ccccc2)nc2ccccc12 (stereo unspecified) | 2 µM [rising, full curve, poor fit] | –
CC(=O)Nc1ccc(NC(=O)Cc2sc(C)nc2-c2ccc(C)cc2)cc1 | 3.66 µM [rising, partial curve, poor fit] | –
CCOC(=O)c1sc2nc(C)[nH]c(=S)c2c1C | 8.91 µM [rising, partial curve, poor fit] | –
Cc1cc(C(=O)OCC(=O)NCCc2ccc(S(N)(=O)=O)cc2)c2ccccc2n1 | 2.31 µM [rising, partial curve, poor fit] | –
CC(=O)Nc1cc2c(cc1Br)OCCO2 | 23.1 µM [falling, single point] | –
Cc1cccc(-n2ncc3c(NCCOCCO)ncnc32)c1 | – | 0.562 µM [rising, full curve, poor fit]
O=S(=O)(Nc1ccc(S(=O)(=O)N2CCCC2)cc1)c1ccc(F)cc1 | 0.112 µM [falling, full curve, poor fit] | –
C=C1CCC2[C@](C)(CO)[C@H](O)CC[C@@]2(C)[C@@H]1C/C=C1\C(=O)OC[C@H]1O (stereo partly specified) | 32.6 µM [falling, single point] | –
Cn1nc(C(=O)NC2CCCN(Cc3ccccc3F)C2)c2ccccc2c1=O (stereo unspecified) | 12.6 µM [rising, partial curve] | 15.8 µM [falling, single point]
Cc1cc(C)nc(Oc2ccc(Br)cc2Br)n1 | 31.6 µM [rising, partial curve, poor fit] | –
CC(O)CN=c1cc(-c2ccccc2)oc2ccc(Cl)cc12 (stereo unspecified) | 0.355 µM [rising, full curve, poor fit] | –
COc1ccc(CNC(=O)c2cc(-c3ccccc3O)n[nH]2)cc1 | 0.92 µM [falling, full curve] | –

Structure (SMILES) | AC50 [1] | AC50 [2]
CCCCOc1ccc(C(=O)NNC(=O)C2C3CCC(C3)C2C(=O)O)cc1 (stereo unspecified) | 1.41 µM [falling, full curve] | –
CC1CCCCN1C(=O)c1ccc(OC2CCN(S(=O)(=O)N(C)C)CC2)cc1 (stereo unspecified) | 12.6 µM [rising, partial curve] | –
O=C(CN1CCC(Cc2ccccc2)CC1)Nc1ccc2c(c1)OCCO2 | 20.6 µM [falling, single point] | –
CC1CCCN(c2ccc(C(=O)Nc3cccnc3)cc2[N+](=O)[O-])C1 (stereo unspecified) | 7.08 µM [rising, partial curve, poor fit] | –
O=C(CSC1=NCCN1)Nc1ccccc1[N+](=O)[O-] | 11.2 µM [falling, partial curve, poor fit] | –
O=C(CCCN1C(=O)C(c2ccccc2)Oc2cccnc21)Nc1ccccc1Cl (stereo unspecified) | 10 µM [falling, partial curve, poor fit] | –
COCCCNC(=S)N1CCN(c2nc(-c3cccc(OC)c3)cs2)CC1 | 35.5 µM [falling, single point] | –
O=C(Nc1c2c(nn1-c1ccc(F)cc1)CS(=O)(=O)C2)c1ccc(Br)o1 | 12.6 µM [falling, single point] | –
CCOc1ccccc1/C=C(\C#N)C(=O)Nc1cccc(C(=O)O)c1 | 11.2 µM [falling, single point] | –
COc1cccc(NC(=S)N2CCc3cc(OC)c(OC)cc3C2COc2ccc3c(C)cc(=O)oc3c2)c1 (stereo unspecified) | 32.6 µM [rising, single point] | –
Cc1nc(NC(=O)c2ccccc2)sc1C1(C)CC(c2ccccc2F)=NO1 (stereo unspecified) | 35.5 µM [falling, single point] | –
Fc1ccc(-n2cc(CNCCc3ccccn3)c(-c3ccccc3Cl)n2)cc1 | 11.2 µM [falling, partial curve, poor fit] | –
CN(C)CCCN(C(=O)CCc1ccccc1)c1nc2ccc(F)cc2s1 | 16.4 µM [falling, partial curve, poor fit] | –
O=C(NC(=S)Nc1ccc(-c2ccc(CO)o2)cc1)c1cccs1 | 35.5 µM [falling, single point] | –
Cc1cccc(Cn2c(CN3CCC(C(=O)NC(C)C)CC3)cc3ccccc32)c1 | 2.82 µM [falling, partial curve, poor fit] | –
COC(=O)C(C(=O)OC)C(C)C(C(=O)OC)C(=O)OC | 5.8 µM [rising, partial curve, poor fit] | –
COc1ccccc1NC(=O)CSc1nnc(-c2ccoc2C)n1CCc1ccccc1 | 11.2 µM [falling, single point] | –
C[C@@H]1CN([C@H](C)CO)C(=O)c2cccc(NC(=O)Nc3ccc(C(F)(F)F)cc3)c2O[C@H]1CN(C)S(=O)(=O)c1cccs1 | 29.1 µM [falling, single point] | –
O=C(Nc1ccccc1Cl)c1ccc(-c2ccccn2)s1 | 17.8 µM [falling, partial curve, poor fit] | –
O=C(/C=C/c1cccc2ccccc12)c1ccncc1 | 29.1 µM [rising, single point] | 29.1 µM [falling, single point]
Cc1ccccc1OCC(=O)NNC(=O)Nc1ccc(Cl)cc1 | 3.55 µM [rising, full curve, poor fit] | –

Structure (SMILES) | AC50 [1] | AC50 [2]
O=C1C=C(c2cccc(O)c2)C[C@@H](c2ccc(F)cc2)C1 | – | 32.6 µM [rising, partial curve, poor fit]
Cc1cc(C)c2cc(CN(Cc3ccc4c(c3)OCO4)Cc3nnnn3Cc3ccco3)c(=O)[nH]c2c1 | 23.1 µM [falling, single point] | –
O=C(CC1C(=O)NCCN1C(=O)Nc1ccccc1)Nc1ccc(F)cc1 (stereo unspecified) | 1.12 µM [falling, full curve] | –
COc1ccccc1C(=O)N/C(=C/c1ccco1)C(=O)Nc1cccc(C(=O)O)c1 | 3.55 µM [falling, full curve] | –
O=C(C1=C(O)C(=O)N(CCCN2CCOCC2)C1c1ccncc1)c1cc2ccccc2o1 (stereo unspecified) | 18.4 µM [falling, partial curve, poor fit] | –
c1ccc2c(Cn3nnc4ccccc43)cccc2c1 | 4.11 µM [rising, full curve, poor fit] | –
CCN(CC)S(=O)(=O)c1ccc(/C=C/C(=O)Nc2ccc(F)c(F)c2F)cc1 | 10.3 µM [falling, partial curve] | –
COc1cc(/C=N/Nc2ccc([N+](=O)[O-])cc2S(=O)(=O)N2CCOCC2)cc(OC)c1OC | 23.1 µM [rising, single point] | –
CCCN1CCC(NC(=O)Nc2ccc(Br)cc2)CC1 | 12.6 µM [rising, partial curve] | –
O=C(CCSCc1ccccc1F)N1CCN(c2ccccn2)CC1 | 29.1 µM [rising, single point] | –
CC[n+]1ccc(/C=C2\Sc3ccccc3N2CCCS(=O)(=O)[O-])c2ccccc21 | 35.5 µM [rising, partial curve, poor fit] | –
O=C(Nc1ccc(Br)cc1)Nn1cnnc1 | 3.55 µM [rising, partial curve, poor fit] | –
CN(C)CCOC(=O)C1(c2ccccc2)CCCC1 | 7.31 µM [rising, partial curve, poor fit] | –
O=C(CSc1ccc(-c2ccccc2)nn1)Nc1ccc2c(c1)OCCO2 | 3.66 µM [rising, partial curve, poor fit] | –
Cc1cccc(OCCNC(=O)c2cncc(Br)c2)c1 | 20.6 µM [rising, partial curve, poor fit] | –
Cc1cc(=O)oc2cc(OC(C)C(=O)Nc3nccs3)ccc12 (stereo unspecified) | 9.2 µM [falling, partial curve] | –
Cc1ccc(NN2C(=O)C=C(c3ccc(Cl)cc3)C2=O)cc1 | 23.1 µM [rising, partial curve] | 18.4 µM [falling, single point]
O=C(Nc1ccncc1)c1c(F)cccc1F | 29.1 µM [falling, single point] | –
COc1ccc(S(=O)(=O)CCC(=O)NCCc2ccc(C)cc2)cc1 | 0.259 µM [falling, full curve, poor fit] | –
CSc1nc2ccc(NC(=O)c3ccc(F)c(F)c3)cc2s1 | 0.708 µM [rising, full curve] | –

One compound at a time, from the list above. Order of values: AC50 [1]	AC50 [2]
CN(C)CCOC(=O)C1(c2ccccc2)CCCC1 is listed with 7.31 µM [rising, partial curve, poor fit]	–
COc1ccc(S(=O)(=O)CCC(=O)NCCc2ccc(C)cc2)cc1 is listed with 0.259 µM [falling, full curve, poor fit]	–
O=C1C=C(c2cccc(O)c2)C[C@@H](c2ccc(F)cc2)C1 is listed with –	32.6 µM [rising, partial curve, poor fit]
